Measured values: publication doi:10.1101/2024.09.14.613007
No constants are given. Whether binding was seen depends on the method and setting. In cells and extracts the contact can be indirect. Some results given as binding are weak or reduced against the parent protein; the word gives no strength.

Molecular target: p21-GFP WT (endogenous p21 tagged with GFP in RPE-1 cells) (human (endogenous in RPE-1)), P38936
Assay: pull-down
Conditions: remark: other sources report otherwise

- binding: binds
B1: CDK4, P11802 1-303 (enzyme)
chain: MATSRYEPVAEIGVGAYGTVYKARDPHSGHFVALKSVRVPNGGGGGGGLPISTVREVALLRRLEAFEHPNVVRLMDVCATSRTDREIKVTLVFEHVDQDLRTYLDKAPPPGLPAETIKDLMRQFLRGLDFLHANCIVHRDLKPENILVTSGGTVKLADFGLARIYSYQMALTPVVVTLWYRAPEVLLQSTYATPVDMWSVGCIFAEMFRRKPLFCGNSEADQLGKIFDLIGLPPEDDWPRDVSLPRGAFPPRGPRPVQSVVPEMEESGAQLLLEMLTFNPHKRISAFRALQHSYLHKDEGNPE
